From US20190011433A1, “CELL CO-CULTURE SYSTEMS AND USES THEREOF” (Dana-Farber Cancer Institute, Inc., priority 2007, published 2019)
“Also recorded” adds a separate entry of the source. Where two headings read alike, the source gives them in different places. For at least one compound, name, drawing or mass did not settle the structure.

Tests used:
[1] = system: Multiple myeloma (MM) cells; settings: cited from earlier work
[2] = system: MM-1R-GFP-luc myeloma cells; assay: CS-BLI drug sensitivity of MM-1R-GFP-luc cells in presence vs absence of stromal cells; settings: MM-1R-GFP-luc (Dex-resistant), presence vs absence of HS-5 BMSCs (10,000 per well)
[3] = system: MM.1S-GFP-luc target cells; assay: CS-BLI killing of MM.1S-GFP-luc target cells by IL-2 stimulated PBMCs; type: cell-based, human; settings: MM.1S-GFP-luc targets
Protocol: (§1) PBMCs were isolated from a healthy donor, stimulated for 24 hrs with 10 ng/mL of IL-2 and then combined in culture with 5000 tumor target cells. The human multiple myeloma line, MM.1S-GFP-luc (FIG. 27A), was used as target cells and combined with PBMCs at 1:1, 1:5, 1:10, 1:20 and 1:40 ratios. The basophilic leukemia line, KU812F-luc-neo (FIG. 27B), was used as target cells and combined with PBMCs from the same donor at 1:1, 1:5, 1:10, 1:20 and 1:40 ratios. Viability of tumor cells was assessed using bioluminescence detection after the addition of luciferin substrate following 4 hours of co-culture with immune effector cells.
(§2) PBMCs were isolated from a healthy donor, stimulated for 24 hrs with IL-2 in the presence of either 1 μM CC5013 (FIG. 29A), 1 μM CC4047 (FIG. 29B), 10 nM PS-341 (FIG. 29C), or 50 nM Dexamethasone (FIG. 29D). PBMCs were washed and combined in culture with MM.1S-GFP-luc target cells at the 1:1, 1:2.5, 1:5, 1:10, 1:20 and 1:40 target to effector ratios.
PBMCs were isolated from a healthy donor, stimulated for 24 hrs with IL-2 in the presence or absence of 1 μM CC4047. MM.1S-GFP-luc cells were cultured in the presence or absence of 1 μM CC4047. […]

[4] = system: KU812F-luc-neo target cells; assay: CS-BLI killing of KU812F-luc-neo target cells by IL-2 stimulated PBMCs; type: cell-based
Protocol: as §1
as §2, with “with” for “in the presence of”, “30A),” for “29A),”, “30B),” for “29B),”, “30C),” for “29C),”, “30D).” for “29D).”, “KU812F-luc-neo” for “MM.1S-GFP-luc”
PBMCs were isolated from a healthy donor, stimulated for 24 hrs with IL-2. PBMCs were then washed and combined in culture with KU812F-luc-neo target cells at the 1:1, 1:2.5, 1:5, 1:10, 1:20 and 1:40 target to effector ratios in the presence or absence 2 μM CC5013 (FIG. 33A), 2 μM CC4047 (FIG. 33B), 20 nM PS-341 (FIG. 33C), or 100 nM Dex (FIG. 33D).

[5] = system: MM-1S-GFP-luc myeloma cells; assay: CS-BLI drug sensitivity of MM-1S-GFP-luc cells in presence vs absence of stromal cells; type: cell-based, human; settings: presence vs absence of HS-5 BMSCs (10,000 per well)
Protocol: Luciferin (7.5 mg/mL; Xenogen Corp, Alameda, Calif.) was added at the volume stated in each experiment. Cell viability and the precise cell counts were established by Trypan blue exclusion assay immediately before plating of the cells. Compartment-specific bioluminescence emitted by individual wells of these plates was measured with two different bioluminescence imaging modalities, namely a Xenogen IVIS® Imaging System (FIG. 1A and FIG. 1B) and a standard luminometer plate reader—Luminoskan luminometer (Labsystems, MA) (FIG. 1C). The results with each method were analyzed for the linearity of the bioluminescent signal vs. cell number using the Living Image® software (Xenogen Corp, Alameda Calif.).

[6] = 2 μM CC5013, 2 μM CC4047, 20 nM PS-341 or 100 nM Dex during co-culture
[7] = PBMCs pretreated 24 hrs with IL-2 plus 1 μM CC5013, 1 μM CC4047, 10 nM PS-341 or 50 nM Dexamethasone, washed

For `C[C@@H]1C[C@H]2[C@@H]3CCC4=CC(=O)C=C[C@]4(C)[C@@]3(F)[C@@H](O)C[C@]2(C)[C@@]1(O)C(=O)CO` [Dex, Dexamethasone], the “responsiveness of MM cells to drug” value ([1]; conventional monolayer cultures) is listed as “highly responsive”, the “responsiveness of MM cells to drug” value ([1]; in the presence of bone marrow stromal cells (BMSCs)) is listed as “significantly less responsive” and the “effect of BMSC co-culture on tumor cell response to drug (protection)” value [2] is listed as “attenuated the responses; also recorded: little effect”. For the same molecule, the “effect of concurrent drug exposure of co-culture on activity of PBMCs to kill tumor targets” value [3, 6] was “no significant difference”, the “effect of drug pretreatment of PBMCs on activity of PBMCs to kill tumor targets” value [3, 7] was “did not have a significant difference” and the “effect of concurrent drug exposure of co-culture on activity of PBMCs to kill tumor targets” value [4, 6] was “no significant difference”. The “effect of drug pretreatment of PBMCs on activity of PBMCs to kill tumor targets” value [4, 7] was “did not have a significant impact” and the “effect of BMSC co-culture on tumor cell response to drug (protection)” value [5] was “attenuated the responses; also recorded: confer protection”.
